Data reported in the supplement of paper PMC12067093, “Discovery and optimisation of a covalent ligand for TRIM25 and its application to targeted protein ubiquitination” (Chemical Science, 2025).
This is one part of the list.

Sequences of proteins named here, by UniProt entry; tags and fusion partners are left off. A change or cut given only in a name is not applied to a line headed by its entry.
UniProt O75155: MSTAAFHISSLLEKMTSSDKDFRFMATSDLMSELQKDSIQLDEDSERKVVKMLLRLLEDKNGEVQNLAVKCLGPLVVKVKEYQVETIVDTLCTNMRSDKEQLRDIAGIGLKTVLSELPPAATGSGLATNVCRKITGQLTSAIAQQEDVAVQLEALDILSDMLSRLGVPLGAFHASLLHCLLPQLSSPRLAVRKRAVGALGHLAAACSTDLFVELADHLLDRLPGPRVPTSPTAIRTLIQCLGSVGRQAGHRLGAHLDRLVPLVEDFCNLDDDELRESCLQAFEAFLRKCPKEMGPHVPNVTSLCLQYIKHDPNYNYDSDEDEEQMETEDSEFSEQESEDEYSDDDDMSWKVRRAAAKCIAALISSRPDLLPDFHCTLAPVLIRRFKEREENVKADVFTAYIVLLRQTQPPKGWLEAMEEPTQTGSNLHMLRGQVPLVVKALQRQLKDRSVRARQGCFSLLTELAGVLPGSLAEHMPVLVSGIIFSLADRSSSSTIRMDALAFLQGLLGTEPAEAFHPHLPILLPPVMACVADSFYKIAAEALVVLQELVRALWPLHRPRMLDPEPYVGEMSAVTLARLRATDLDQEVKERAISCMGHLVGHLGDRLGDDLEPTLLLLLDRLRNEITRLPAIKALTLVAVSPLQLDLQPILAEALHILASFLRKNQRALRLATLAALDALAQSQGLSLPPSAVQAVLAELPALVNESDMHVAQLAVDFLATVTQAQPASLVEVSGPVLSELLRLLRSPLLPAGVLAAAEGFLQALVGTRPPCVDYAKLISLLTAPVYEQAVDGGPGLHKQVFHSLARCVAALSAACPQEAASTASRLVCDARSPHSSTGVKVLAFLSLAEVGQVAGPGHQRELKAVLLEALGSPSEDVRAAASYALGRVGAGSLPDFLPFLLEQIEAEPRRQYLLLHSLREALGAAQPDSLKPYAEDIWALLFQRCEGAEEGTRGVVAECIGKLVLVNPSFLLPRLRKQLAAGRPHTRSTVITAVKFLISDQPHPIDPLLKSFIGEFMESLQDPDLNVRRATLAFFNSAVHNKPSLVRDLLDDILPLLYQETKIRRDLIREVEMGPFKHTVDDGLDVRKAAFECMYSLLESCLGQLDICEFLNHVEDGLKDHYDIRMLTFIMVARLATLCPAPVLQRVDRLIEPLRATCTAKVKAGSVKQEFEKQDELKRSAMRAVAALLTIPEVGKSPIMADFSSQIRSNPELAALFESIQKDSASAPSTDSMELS
UniProt Q9Y6W3: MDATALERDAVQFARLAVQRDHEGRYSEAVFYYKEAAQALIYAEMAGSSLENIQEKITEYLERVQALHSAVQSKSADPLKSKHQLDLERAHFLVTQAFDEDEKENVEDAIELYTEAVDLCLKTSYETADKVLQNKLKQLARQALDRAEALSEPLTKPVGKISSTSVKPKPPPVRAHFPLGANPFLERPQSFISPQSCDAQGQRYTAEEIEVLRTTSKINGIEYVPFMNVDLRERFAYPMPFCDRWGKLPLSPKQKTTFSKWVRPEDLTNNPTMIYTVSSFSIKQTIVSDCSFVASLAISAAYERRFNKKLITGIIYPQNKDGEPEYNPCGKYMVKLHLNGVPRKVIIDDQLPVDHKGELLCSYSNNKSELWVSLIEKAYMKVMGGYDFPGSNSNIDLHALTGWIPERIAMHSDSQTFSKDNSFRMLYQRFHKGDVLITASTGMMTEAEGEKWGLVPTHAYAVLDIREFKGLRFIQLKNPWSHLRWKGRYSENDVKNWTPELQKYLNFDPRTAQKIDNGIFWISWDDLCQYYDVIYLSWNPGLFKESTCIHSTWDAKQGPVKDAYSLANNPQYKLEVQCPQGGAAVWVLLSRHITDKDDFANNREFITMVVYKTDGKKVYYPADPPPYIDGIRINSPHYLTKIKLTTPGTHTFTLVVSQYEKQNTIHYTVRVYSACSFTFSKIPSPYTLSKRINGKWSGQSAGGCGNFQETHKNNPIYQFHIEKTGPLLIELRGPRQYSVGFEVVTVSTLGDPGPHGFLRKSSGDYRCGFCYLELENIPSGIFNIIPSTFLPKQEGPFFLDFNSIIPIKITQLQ
UniProt Q9H257: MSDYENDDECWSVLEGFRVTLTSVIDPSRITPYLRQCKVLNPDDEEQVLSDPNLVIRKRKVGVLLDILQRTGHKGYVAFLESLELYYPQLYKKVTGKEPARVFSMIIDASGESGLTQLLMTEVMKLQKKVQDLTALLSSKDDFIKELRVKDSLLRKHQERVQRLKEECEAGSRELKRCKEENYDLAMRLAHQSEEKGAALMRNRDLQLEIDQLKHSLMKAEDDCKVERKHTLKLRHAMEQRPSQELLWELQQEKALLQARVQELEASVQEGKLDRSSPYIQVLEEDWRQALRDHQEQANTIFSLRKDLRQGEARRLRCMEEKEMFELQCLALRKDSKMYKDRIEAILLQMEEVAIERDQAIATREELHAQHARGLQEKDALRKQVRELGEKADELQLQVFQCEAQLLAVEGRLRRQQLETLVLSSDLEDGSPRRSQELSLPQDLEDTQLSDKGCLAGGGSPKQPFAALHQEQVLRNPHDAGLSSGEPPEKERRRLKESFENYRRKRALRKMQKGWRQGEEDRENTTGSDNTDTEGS
UniProt Q14790: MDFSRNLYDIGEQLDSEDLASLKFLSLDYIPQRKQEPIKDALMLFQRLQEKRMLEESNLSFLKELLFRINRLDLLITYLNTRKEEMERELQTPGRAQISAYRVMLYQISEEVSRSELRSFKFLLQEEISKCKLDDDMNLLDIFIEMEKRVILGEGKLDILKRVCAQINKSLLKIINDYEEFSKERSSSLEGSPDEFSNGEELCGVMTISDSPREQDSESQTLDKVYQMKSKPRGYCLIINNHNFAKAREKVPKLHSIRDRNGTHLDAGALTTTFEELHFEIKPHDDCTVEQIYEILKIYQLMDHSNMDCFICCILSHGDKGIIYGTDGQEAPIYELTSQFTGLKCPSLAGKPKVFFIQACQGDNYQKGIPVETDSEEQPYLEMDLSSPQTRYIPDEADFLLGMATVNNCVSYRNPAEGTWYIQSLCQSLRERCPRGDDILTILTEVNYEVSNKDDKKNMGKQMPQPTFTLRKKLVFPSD
UniProt P55210: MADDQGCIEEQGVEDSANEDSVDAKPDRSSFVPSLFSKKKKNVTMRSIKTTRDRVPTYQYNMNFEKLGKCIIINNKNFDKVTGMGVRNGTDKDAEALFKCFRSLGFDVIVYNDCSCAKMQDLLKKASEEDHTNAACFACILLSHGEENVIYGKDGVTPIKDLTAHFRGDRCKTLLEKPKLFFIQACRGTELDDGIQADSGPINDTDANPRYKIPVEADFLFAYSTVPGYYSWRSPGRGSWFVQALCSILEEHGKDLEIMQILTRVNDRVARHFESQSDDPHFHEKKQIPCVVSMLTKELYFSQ
UniProt Q8IX12: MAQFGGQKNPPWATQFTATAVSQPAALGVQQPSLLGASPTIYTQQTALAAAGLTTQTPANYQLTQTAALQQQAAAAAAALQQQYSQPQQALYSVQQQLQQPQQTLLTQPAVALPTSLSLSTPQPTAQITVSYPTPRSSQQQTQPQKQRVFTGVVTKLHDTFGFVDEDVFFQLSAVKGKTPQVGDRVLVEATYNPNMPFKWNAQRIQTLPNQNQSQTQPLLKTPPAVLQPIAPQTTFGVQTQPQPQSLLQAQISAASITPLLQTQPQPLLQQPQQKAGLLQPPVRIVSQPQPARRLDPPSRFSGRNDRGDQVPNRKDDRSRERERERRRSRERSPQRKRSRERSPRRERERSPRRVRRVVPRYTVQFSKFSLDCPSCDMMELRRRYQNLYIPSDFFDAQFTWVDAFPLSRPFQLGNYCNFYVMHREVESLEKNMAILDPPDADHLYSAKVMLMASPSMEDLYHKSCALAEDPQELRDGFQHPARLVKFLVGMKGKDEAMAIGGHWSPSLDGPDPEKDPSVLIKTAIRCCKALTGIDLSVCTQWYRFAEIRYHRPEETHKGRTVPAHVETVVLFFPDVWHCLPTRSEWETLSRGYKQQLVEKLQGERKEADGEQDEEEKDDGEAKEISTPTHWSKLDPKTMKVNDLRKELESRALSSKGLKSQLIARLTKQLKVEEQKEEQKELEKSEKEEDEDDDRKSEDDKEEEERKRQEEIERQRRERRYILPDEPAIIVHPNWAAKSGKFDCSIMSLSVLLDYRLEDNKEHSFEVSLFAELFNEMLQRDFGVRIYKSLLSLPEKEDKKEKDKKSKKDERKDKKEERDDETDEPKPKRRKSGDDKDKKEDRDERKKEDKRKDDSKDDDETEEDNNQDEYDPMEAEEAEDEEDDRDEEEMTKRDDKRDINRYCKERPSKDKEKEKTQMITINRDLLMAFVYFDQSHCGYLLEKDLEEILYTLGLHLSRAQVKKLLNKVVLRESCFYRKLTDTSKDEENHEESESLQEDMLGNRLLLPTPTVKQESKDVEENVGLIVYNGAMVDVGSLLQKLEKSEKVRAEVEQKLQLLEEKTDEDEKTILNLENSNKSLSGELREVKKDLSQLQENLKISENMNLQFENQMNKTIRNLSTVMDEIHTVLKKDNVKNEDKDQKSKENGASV
UniProt P42575: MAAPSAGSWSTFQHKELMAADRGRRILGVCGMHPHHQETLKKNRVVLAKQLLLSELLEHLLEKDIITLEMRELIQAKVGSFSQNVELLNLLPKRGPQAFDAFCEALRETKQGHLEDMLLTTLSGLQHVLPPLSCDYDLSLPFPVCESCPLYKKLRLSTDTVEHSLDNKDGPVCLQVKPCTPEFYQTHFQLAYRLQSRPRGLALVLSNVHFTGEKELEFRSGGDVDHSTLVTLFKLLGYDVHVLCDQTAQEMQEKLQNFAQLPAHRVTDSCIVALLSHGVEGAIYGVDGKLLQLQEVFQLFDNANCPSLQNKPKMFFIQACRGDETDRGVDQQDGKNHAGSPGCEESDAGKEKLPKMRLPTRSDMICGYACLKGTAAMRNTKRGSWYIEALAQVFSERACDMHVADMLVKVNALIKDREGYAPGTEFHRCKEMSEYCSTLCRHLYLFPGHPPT
UniProt Q9HA77: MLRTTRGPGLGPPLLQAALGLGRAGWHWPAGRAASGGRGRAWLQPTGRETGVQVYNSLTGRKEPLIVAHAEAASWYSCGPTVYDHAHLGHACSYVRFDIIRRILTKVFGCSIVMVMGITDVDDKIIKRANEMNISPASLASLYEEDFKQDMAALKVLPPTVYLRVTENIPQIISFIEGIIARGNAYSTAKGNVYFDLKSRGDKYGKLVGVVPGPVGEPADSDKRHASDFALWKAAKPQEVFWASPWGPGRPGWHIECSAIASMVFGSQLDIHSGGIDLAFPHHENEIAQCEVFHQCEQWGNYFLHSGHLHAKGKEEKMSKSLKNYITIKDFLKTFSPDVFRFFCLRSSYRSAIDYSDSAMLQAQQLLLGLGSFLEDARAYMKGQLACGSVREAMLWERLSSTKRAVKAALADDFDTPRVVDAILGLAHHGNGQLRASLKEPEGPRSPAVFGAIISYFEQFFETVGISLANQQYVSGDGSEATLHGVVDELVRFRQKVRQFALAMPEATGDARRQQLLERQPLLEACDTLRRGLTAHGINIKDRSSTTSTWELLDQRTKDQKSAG
UniProt P29466: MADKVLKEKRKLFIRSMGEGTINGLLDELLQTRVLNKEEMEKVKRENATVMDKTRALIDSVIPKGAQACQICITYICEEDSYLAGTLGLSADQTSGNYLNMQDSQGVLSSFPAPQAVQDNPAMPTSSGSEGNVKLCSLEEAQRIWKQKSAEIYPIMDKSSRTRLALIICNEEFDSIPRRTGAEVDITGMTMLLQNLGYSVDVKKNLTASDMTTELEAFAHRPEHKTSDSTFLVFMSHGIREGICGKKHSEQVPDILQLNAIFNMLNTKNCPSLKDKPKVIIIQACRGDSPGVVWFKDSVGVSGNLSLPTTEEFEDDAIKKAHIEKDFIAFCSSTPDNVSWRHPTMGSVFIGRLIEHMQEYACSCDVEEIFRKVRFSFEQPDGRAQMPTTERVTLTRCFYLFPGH
UniProt Q4VC31: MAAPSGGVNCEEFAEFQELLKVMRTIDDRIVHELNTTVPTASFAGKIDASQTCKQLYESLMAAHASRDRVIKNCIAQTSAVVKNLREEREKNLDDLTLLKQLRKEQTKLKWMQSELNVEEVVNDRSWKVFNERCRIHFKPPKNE
UniProt Q8IWD4: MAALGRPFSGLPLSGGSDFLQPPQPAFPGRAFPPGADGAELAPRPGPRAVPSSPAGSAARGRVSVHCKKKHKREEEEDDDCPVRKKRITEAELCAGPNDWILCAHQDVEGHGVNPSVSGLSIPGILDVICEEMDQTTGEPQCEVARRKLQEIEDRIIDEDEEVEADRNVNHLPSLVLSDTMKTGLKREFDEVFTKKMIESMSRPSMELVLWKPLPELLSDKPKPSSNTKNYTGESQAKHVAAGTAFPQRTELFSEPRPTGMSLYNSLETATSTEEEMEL
UniProt P45973, whole entry, looked up: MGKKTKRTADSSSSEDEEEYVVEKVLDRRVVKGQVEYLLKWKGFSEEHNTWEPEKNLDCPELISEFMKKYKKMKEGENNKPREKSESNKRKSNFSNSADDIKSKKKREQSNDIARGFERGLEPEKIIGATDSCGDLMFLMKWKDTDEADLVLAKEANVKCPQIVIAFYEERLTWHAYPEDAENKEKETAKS

Compound: CC1Cc2ccccc2N1C(=O)C1CCCN(C1)C(=O)CCl (mixture of isomers) [TRIM25 ligand 11 (diastereomer mixture)]
Experiment: probe-labelled cysteine peptide fold change vs DMSO (competition) (log2 fold change); higher = less target engagement (more negative = stronger competition)
Settings: THP-1, incubation time: 4 h
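Further: competitive chemoproteomic profiling in live THP-1 cells with an iodoacetamide desthiobiotin (IA-DTB) probe, comparing probe-labelled peptide intensities in compound-treated cells against DMSO-treated controls.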

Row | Target | probe-labelled cysteine peptide fold change (10 µM) | probe-labelled cysteine peptide fold change (50 µM)
1 | CAPN15_O75808_101_GSCQEEAGPVR (UniProt O75808) | -0.0901 | -0.228
2 | CAPZA1_P52907_141_DHYSNGFCTVYAK (UniProt P52907) | 0.13 | -0.0952
3 | CAND2_O75155_945_CEGAEEGTR (UniProt O75155) | 0.0275 | 0.0263
4 | CAPZA1_P52907_157_TIDGQQTIIACIESHQFQPK (UniProt P52907) | 0.0818 | 0.16
5 | CAPN1_P07384_417_IRLDETDDPDDYGDRESGCSFVLALMQK (UniProt P07384) | -0.0697 | -0.14
6 | CAPN7_Q9Y6W3_242_FAYPMPFCDR (UniProt Q9Y6W3) | -0.0509 | -0.204
7 | CARD9_Q9H257_329_EMFELQCLALRK (UniProt Q9H257) | -0.507 | -0.3
8 | CAPZA2_P47755_157_KIDGQQTIIACIESHQFQAK (UniProt P47755) | 0.0477 | 0.155
9 | CASP8_Q14790_409_YIPDEADFLLGMATVNNCVSYR (UniProt Q14790) | -0.017 | -0.298
10 | CASP7_P55210_70_CIIINNK (UniProt P55210) | 0.00656 | 0.0125
11 | CCDC47_Q96A33_214_VCCEGMLIQLR (UniProt Q96A33) | 0.03 | 0.0289
12 | CCAR1_Q8IX12_539_ALTGIDLSVCTQWYR (UniProt Q8IX12) | -0.0774 | -0.142
13 | CARD9_Q9H257_329_EMFELQCLALR (UniProt Q9H257) | -0.0386 | 0.114
14 | CCT3_P49368_366_IGDEYFTFITDCKDPK (UniProt P49368) | -0.283 | -0.235
15 | CASP10_Q92851_341+350_CNPAHADGDCFVFCILTHGR (UniProt Q92851) | -0.021 | -0.0669
16 | CARD9_Q9H257_178_CKEENYDLAMR (UniProt Q9H257) | -0.0469 | 0.112
17 | CC2D1A_Q6P1N0_765_LDALEIACEVR (UniProt Q6P1N0) | 0.184 | 0.225
18 | CCAR1_Q8IX12_744_SGKFDCSIMSLSVLLDYR (UniProt Q8IX12) | 0.105 | 0.158
19 | CASP4_P49662_336+337_YSWCCHLEEVFR (UniProt P49662) | -0.294 | -0.276
20 | CASP2_P42575_440_EMSEYCSTLCR (UniProt P42575) | -0.0238 | -0.169

Row | Target | probe-labelled cysteine peptide fold change (10 µM) | probe-labelled cysteine peptide fold change (50 µM)
21 | CCDC88B_A6NC98_1228_LTTQCELLTQLR (UniProt A6NC98) | 0.0742 | -0.0454
22 | CARM1_Q86X55_438_AGDTLSGTCLLIANK (UniProt Q86X55) | -0.0311 | 0.13
23 | CCAR2_Q8N163_754_VVTQNICQYR (UniProt Q8N163) | -0.0471 | -0.0573
24 | CASP8AP2_Q9UKL3_1647_MGHSDEVADECFK (UniProt Q9UKL3) | -0.124 | -0.394
25 | CARS2_Q9HA77_526_QPLLEACDTLR (UniProt Q9HA77) | 0.0288 | 0.297
26 | CASP1_P29466_285_VIIIQACR (UniProt P29466) | -0.167 | -0.214
27 | CAPN2_P17655_301_WNDNCPSWNTIDPEERER (UniProt P17655) | -0.267 | -0.144
28 | CAPN7_Q9Y6W3_704_WSGQSAGGCGNFQETHK (UniProt Q9Y6W3) | 0.0509 | -0.00887
29 | CCDC58_Q4VC31_10_AAPSGGVNCEEFAEFQELLK (UniProt Q4VC31) | -0.0916 | -0.0215
30 | CCDC51_Q96ER9_331_TCSQMAGVVQLVK (UniProt Q96ER9) | -0.0573 | -0.0324
31 | CASP8_Q14790_313_IYQLMDHSNMDCFICCILSHGDK (UniProt Q14790) | 0.00975 | 0.167
32 | CANX_P27824_160_LNKPFLFDTKPLIVQYEVNFQNGIECGGAYVK (UniProt P27824) | -0.123 | -0.202
33 | CCNB2_O95067_131_IEDIDNEDWENPQLCSDYVK (UniProt O95067) | 0.105 | 0.113
34 | CASP2_P42575_244_LLGYDVHVLCDQTAQEMQEK (UniProt P42575) | 0.00292 | -0.00038
35 | CAP1_Q01518_375_INSITVDNCK (UniProt Q01518) | 0.148 | 0.144
36 | CCDC117_Q8IWD4_81_EEEEDDDCPVR (UniProt Q8IWD4) | -0.0343 | -0.323
37 | CBX5_P45973_59_NLDCPELISEFMK (UniProt P45973) | -0.0596 | 0.0364
38 | CCT2_P78371_412_TVYGGGCSEMLMAHAVTQLANR (UniProt P78371) | -0.0947 | 0.0752
39 | CCDC106_Q9BWC9_184_DADGVLCR (UniProt Q9BWC9) | 0.013 | -0.0172
